The record followed here is article PMC8208791.

Chains of the proteins cited; added tags and fusions are not shown.
UniProt P06700: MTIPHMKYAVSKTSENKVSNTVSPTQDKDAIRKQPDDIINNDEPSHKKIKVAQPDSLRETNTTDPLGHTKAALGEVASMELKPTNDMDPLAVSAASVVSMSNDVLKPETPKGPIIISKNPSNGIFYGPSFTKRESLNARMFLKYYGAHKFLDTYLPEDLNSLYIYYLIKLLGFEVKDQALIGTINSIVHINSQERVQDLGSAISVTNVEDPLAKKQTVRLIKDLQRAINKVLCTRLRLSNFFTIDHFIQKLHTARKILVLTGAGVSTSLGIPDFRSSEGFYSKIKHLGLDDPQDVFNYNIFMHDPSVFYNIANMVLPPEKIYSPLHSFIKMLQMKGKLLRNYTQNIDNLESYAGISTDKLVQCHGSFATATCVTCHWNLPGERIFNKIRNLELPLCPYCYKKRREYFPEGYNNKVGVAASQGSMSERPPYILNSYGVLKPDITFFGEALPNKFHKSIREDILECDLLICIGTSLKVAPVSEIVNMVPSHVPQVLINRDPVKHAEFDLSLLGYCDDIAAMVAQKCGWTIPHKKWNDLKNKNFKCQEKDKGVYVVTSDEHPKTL

The target of experiment [1] is T1, Smc6^FLAG (S. cerevisiae) (UniProt Q12749).
T1 sequence: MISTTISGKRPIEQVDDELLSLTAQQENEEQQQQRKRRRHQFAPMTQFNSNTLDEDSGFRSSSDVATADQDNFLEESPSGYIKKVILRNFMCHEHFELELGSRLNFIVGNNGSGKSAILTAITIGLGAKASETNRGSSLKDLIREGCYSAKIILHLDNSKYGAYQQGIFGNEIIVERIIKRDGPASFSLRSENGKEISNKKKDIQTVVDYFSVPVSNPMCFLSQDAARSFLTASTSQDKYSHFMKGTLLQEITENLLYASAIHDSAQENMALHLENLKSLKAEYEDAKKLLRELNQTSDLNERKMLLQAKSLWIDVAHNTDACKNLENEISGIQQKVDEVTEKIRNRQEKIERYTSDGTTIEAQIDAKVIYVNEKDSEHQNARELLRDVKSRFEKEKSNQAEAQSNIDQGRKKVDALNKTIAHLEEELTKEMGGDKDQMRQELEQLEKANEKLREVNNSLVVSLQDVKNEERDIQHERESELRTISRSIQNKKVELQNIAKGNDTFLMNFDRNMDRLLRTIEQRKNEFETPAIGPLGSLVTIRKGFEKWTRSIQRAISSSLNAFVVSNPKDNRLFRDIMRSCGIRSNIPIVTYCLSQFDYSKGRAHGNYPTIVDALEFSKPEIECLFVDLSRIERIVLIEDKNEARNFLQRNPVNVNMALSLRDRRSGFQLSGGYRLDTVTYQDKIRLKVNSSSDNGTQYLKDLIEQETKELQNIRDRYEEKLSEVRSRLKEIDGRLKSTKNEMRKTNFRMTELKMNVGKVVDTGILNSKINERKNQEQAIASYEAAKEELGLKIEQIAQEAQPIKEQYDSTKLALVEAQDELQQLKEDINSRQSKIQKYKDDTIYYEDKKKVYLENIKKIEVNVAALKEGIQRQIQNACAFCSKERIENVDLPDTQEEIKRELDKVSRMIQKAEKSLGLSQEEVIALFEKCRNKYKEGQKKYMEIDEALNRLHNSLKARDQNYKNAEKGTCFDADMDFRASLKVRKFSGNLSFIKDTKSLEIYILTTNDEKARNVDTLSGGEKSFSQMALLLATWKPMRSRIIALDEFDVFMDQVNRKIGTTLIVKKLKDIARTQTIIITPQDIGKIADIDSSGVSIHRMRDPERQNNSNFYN
The experiment is described as follows: co-IP; yeast cell lysates (log phase, 2 h at 30°C; 50 mM HEPES, 140 mM NaCl, 1 mM EDTA, 1% Triton X-100) with antibody-coupled Dynabeads 2 h at 4°C; washes with 250 mM LiCl, 0.5% NP-40; western blot against the epitope tags or Sir2; done in wild type and in nse3-1 mutant cells (recovery unaltered). In general terms: Immunoblotting shows a protein as a band on a membrane.

The target in experiment [2] is T2, Nse6 (S. cerevisiae) (UniProt P40026).
T2 sequence: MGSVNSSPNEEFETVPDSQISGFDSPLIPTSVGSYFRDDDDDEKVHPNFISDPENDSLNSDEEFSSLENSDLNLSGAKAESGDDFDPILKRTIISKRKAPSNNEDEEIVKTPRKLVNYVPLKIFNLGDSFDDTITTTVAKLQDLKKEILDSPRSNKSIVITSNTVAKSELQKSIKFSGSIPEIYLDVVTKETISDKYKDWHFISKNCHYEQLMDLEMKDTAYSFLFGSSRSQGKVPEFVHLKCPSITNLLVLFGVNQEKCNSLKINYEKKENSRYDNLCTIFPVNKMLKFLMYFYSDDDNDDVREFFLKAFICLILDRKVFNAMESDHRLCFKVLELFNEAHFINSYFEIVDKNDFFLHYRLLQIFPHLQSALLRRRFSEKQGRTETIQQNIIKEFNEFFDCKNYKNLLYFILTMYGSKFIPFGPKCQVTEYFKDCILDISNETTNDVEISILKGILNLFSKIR
Briefly: two-hybrid; bait (J 965), prey (J 1493) and reporter (J 359) plasmids in strain JC 1280; 6 h in 2% glucose or 2% galactose at 30°C; beta-galactosidase activity with ONPG, OD420 normalised to OD600.

Experiment [3] concerns the target T3, Csm1^TAP (S. cerevisiae) (UniProt P25651).
T3 sequence: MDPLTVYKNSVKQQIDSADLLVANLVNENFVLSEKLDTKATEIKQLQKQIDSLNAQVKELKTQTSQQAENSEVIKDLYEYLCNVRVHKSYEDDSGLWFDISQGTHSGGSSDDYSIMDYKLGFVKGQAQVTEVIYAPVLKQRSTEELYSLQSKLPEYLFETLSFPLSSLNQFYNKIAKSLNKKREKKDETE
Briefly: co-IP; yeast cell lysates (log phase, 2 h at 30°C; 50 mM HEPES, 140 mM NaCl, 1 mM EDTA, 1% Triton X-100) with antibody-coupled Dynabeads 2 h at 4°C; washes with 250 mM LiCl, 0.5% NP-40; western blot against the epitope tags or Sir2; done in wild type and in nse3-1 mutant cells (recovery unaltered).

Experiment [4] has as its target T4, Heh1^TAP (S. cerevisiae) (UniProt Q03707).
T4 sequence: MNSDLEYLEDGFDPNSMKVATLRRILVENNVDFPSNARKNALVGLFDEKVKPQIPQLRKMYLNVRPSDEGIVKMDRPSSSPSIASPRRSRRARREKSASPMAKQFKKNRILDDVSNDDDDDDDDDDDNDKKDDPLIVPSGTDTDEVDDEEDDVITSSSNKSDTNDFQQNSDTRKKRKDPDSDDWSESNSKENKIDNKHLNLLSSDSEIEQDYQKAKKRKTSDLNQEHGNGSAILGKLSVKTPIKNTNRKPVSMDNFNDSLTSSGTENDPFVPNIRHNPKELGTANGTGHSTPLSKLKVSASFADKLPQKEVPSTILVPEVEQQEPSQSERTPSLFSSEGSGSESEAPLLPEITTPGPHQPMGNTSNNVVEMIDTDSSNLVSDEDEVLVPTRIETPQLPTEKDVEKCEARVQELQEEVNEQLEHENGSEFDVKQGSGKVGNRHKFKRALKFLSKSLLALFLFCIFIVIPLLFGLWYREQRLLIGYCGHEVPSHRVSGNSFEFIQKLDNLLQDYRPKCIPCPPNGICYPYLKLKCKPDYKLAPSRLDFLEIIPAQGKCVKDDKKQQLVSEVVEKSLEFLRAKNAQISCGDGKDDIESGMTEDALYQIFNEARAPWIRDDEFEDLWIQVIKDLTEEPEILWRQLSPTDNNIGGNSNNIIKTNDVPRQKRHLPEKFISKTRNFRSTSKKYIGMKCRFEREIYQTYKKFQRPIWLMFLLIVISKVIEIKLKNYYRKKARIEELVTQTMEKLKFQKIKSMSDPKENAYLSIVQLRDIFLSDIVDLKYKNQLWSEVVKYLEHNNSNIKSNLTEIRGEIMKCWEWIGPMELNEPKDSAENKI
The experiment is described as above.

Experiment [5] addresses T1, Smc6^FLAG (S. cerevisiae). The description is as above. This is another data set of the same source.
The target of experiment [6] is T5, Heh1^MYC (S. cerevisiae) (UniProt Q03707).
T5 sequence: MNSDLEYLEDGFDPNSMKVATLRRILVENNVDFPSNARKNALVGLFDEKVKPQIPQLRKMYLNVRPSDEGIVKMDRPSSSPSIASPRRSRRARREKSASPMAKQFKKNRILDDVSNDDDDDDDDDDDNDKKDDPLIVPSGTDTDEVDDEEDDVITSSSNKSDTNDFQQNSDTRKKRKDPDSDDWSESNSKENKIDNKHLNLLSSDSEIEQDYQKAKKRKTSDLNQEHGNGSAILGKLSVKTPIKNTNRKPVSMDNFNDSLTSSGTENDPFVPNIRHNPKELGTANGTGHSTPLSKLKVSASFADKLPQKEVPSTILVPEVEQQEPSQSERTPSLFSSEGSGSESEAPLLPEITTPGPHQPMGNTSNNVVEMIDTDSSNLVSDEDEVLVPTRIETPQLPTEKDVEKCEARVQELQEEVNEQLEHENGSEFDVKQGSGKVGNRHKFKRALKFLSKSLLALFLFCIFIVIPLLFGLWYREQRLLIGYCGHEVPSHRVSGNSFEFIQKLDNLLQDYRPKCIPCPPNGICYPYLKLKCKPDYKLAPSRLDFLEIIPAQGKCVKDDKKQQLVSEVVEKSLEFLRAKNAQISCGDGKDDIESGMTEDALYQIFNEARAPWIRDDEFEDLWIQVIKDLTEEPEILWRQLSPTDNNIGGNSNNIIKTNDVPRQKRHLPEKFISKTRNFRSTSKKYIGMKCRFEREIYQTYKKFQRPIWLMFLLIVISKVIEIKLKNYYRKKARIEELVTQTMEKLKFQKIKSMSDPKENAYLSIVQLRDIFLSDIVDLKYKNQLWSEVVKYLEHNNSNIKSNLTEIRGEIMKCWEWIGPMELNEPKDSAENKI
The description is as above.

Like-named read-outs stand apart in the source and are kept apart here. No constants are given. Whether binding was seen depends on the method and setting. For some of these results: In cells and extracts the contact can be indirect. Some entries that bind do so weakly or less than the wild type. For some of these results: Where a sequence is shown, tags or fusion partners need not be part of it.

Regarding Sir2 (from UniProt P06700 1-562), the binding entry in experiment [1] is “binds”.

B1: Lrs4 (protein, UniProt Q04087 1-347)
chain: MTTLLQLLSNYYKAKLDSERIYNEYVQSQYEFASLDKLNNNKGDPKKVVDETLFLQRQIAQLNKQLQLSFQENEKLLSVQKNQKALYQSKLSSKDAFIDDLKLKLKVEQISVDKHNKERTPSTGRDEQQRNSKAAHTSKPTIHLLSPIVNRDKPNNQTNDRGGNDPDSPTSQRRSRGLRSLLSSGKNTIFDSISKNLDDEINENAHIRNDTTSSKIAGKSPSRLSALQKSPELRKERNNMILKEHILRSKDDQNITSSRKLDNIELSSIGDSTAMTSRSSTVNANDILGNEENDGITKLKRVNKLTSSPVKRDCSTNKKRKLTKQRIATLPNSDEELSNNLNVDEFV
Take B1: the binding entry in experiment [2] is “binds”.

B2: Smc6^FLAG (protein, UniProt Q12749 1-1114)
chain: MISTTISGKRPIEQVDDELLSLTAQQENEEQQQQRKRRRHQFAPMTQFNSNTLDEDSGFRSSSDVATADQDNFLEESPSGYIKKVILRNFMCHEHFELELGSRLNFIVGNNGSGKSAILTAITIGLGAKASETNRGSSLKDLIREGCYSAKIILHLDNSKYGAYQQGIFGNEIIVERIIKRDGPASFSLRSENGKEISNKKKDIQTVVDYFSVPVSNPMCFLSQDAARSFLTASTSQDKYSHFMKGTLLQEITENLLYASAIHDSAQENMALHLENLKSLKAEYEDAKKLLRELNQTSDLNERKMLLQAKSLWIDVAHNTDACKNLENEISGIQQKVDEVTEKIRNRQEKIERYTSDGTTIEAQIDAKVIYVNEKDSEHQNARELLRDVKSRFEKEKSNQAEAQSNIDQGRKKVDALNKTIAHLEEELTKEMGGDKDQMRQELEQLEKANEKLREVNNSLVVSLQDVKNEERDIQHERESELRTISRSIQNKKVELQNIAKGNDTFLMNFDRNMDRLLRTIEQRKNEFETPAIGPLGSLVTIRKGFEKWTRSIQRAISSSLNAFVVSNPKDNRLFRDIMRSCGIRSNIPIVTYCLSQFDYSKGRAHGNYPTIVDALEFSKPEIECLFVDLSRIERIVLIEDKNEARNFLQRNPVNVNMALSLRDRRSGFQLSGGYRLDTVTYQDKIRLKVNSSSDNGTQYLKDLIEQETKELQNIRDRYEEKLSEVRSRLKEIDGRLKSTKNEMRKTNFRMTELKMNVGKVVDTGILNSKINERKNQEQAIASYEAAKEELGLKIEQIAQEAQPIKEQYDSTKLALVEAQDELQQLKEDINSRQSKIQKYKDDTIYYEDKKKVYLENIKKIEVNVAALKEGIQRQIQNACAFCSKERIENVDLPDTQEEIKRELDKVSRMIQKAEKSLGLSQEEVIALFEKCRNKYKEGQKKYMEIDEALNRLHNSLKARDQNYKNAEKGTCFDADMDFRASLKVRKFSGNLSFIKDTKSLEIYILTTNDEKARNVDTLSGGEKSFSQMALLLATWKPMRSRIIALDEFDVFMDQVNRKIGTTLIVKKLKDIARTQTIIITPQDIGKIADIDSSGVSIHRMRDPERQNNSNFYN
Take B2: the binding entry in experiment [3] and in experiment [4] was “binds” each time.

B3: Csm1^TAP (protein, UniProt P25651 1-190)
chain: MDPLTVYKNSVKQQIDSADLLVANLVNENFVLSEKLDTKATEIKQLQKQIDSLNAQVKELKTQTSQQAENSEVIKDLYEYLCNVRVHKSYEDDSGLWFDISQGTHSGGSSDDYSIMDYKLGFVKGQAQVTEVIYAPVLKQRSTEELYSLQSKLPEYLFETLSFPLSSLNQFYNKIAKSLNKKREKKDETE
Turning to B3, the binding result in experiment [5] and in experiment [6] was “binds” in each case.

B4: Heh1^TAP (protein, UniProt Q03707 1-834)
chain: MNSDLEYLEDGFDPNSMKVATLRRILVENNVDFPSNARKNALVGLFDEKVKPQIPQLRKMYLNVRPSDEGIVKMDRPSSSPSIASPRRSRRARREKSASPMAKQFKKNRILDDVSNDDDDDDDDDDDNDKKDDPLIVPSGTDTDEVDDEEDDVITSSSNKSDTNDFQQNSDTRKKRKDPDSDDWSESNSKENKIDNKHLNLLSSDSEIEQDYQKAKKRKTSDLNQEHGNGSAILGKLSVKTPIKNTNRKPVSMDNFNDSLTSSGTENDPFVPNIRHNPKELGTANGTGHSTPLSKLKVSASFADKLPQKEVPSTILVPEVEQQEPSQSERTPSLFSSEGSGSESEAPLLPEITTPGPHQPMGNTSNNVVEMIDTDSSNLVSDEDEVLVPTRIETPQLPTEKDVEKCEARVQELQEEVNEQLEHENGSEFDVKQGSGKVGNRHKFKRALKFLSKSLLALFLFCIFIVIPLLFGLWYREQRLLIGYCGHEVPSHRVSGNSFEFIQKLDNLLQDYRPKCIPCPPNGICYPYLKLKCKPDYKLAPSRLDFLEIIPAQGKCVKDDKKQQLVSEVVEKSLEFLRAKNAQISCGDGKDDIESGMTEDALYQIFNEARAPWIRDDEFEDLWIQVIKDLTEEPEILWRQLSPTDNNIGGNSNNIIKTNDVPRQKRHLPEKFISKTRNFRSTSKKYIGMKCRFEREIYQTYKKFQRPIWLMFLLIVISKVIEIKLKNYYRKKARIEELVTQTMEKLKFQKIKSMSDPKENAYLSIVQLRDIFLSDIVDLKYKNQLWSEVVKYLEHNNSNIKSNLTEIRGEIMKCWEWIGPMELNEPKDSAENKI
B4: the binding entry in experiment [5] was “binds”.
